Results are given in words; binding and its absence hold for the method and conditions named. Some results given as binding are weak or reduced against the parent protein; the word gives no strength.

By UniProt entry, the sequences of proteins in these tests, tags left out. Residues count along the entry.
UniProt P16070, residues 21-742: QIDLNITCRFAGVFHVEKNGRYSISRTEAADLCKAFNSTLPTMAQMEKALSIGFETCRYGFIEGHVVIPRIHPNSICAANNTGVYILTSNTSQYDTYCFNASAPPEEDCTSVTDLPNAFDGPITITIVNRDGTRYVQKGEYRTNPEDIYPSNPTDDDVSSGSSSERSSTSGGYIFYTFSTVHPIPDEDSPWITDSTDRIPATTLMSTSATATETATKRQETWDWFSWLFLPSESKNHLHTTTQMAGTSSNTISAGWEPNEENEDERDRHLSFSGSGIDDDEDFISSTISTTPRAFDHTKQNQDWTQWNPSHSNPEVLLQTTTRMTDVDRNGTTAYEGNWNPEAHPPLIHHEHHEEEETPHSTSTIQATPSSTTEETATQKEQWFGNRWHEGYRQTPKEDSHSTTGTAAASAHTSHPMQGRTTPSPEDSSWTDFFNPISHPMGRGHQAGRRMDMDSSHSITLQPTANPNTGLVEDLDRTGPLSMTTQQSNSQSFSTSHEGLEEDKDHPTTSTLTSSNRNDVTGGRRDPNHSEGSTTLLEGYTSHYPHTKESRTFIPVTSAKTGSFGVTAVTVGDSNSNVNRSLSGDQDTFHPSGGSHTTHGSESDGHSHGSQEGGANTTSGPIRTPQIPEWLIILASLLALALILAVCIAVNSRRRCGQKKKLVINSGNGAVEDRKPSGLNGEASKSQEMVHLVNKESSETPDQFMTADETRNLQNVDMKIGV

For assay [1], the target named is CD44 on SKOV3 cells (UniProt P16070). Kind of assay: FACS competition on SKOV3 cells; Å6 concentration varied, competitor DF1485.
For assay [2] the target is unchanged. Description: crosslinking of 100 µM Å6Cbiotin to SKOV3 cells, immunoprecipitation with anti-CD44 DF1485, blots.
For assay [3] the target is unchanged. Description: crosslinking of 100 µM Å6Cbiotin to SKOV3 cells, immunoprecipitation with anti-CD44 DF1485, HRP-streptavidin blot.

B1: Å6 peptide (Ac-KPSSPPEE-Am, SEQ ID NO:1) (peptide)
peptide: KPSSPPEE
modifications: N-terminal acetyl (Ac); C-terminal amide (Am)
For the molecule B1, in the assay with CD44 on SKOV3 cells [1], the binding result is recorded as “binds”.

B2: Å6Cbiotin (peptide)
peptide: KPSSPPEE
modifications: biotin label (attachment not described)
With B2, the binding entry in the assay with CD44 on SKOV3 cells [2] and in the assay with CD44 on SKOV3 cells [3] was “binds” in each case.

The record behind these values is patent US20110053864A1.
